# Reference: US11136597B2, “Compositions for enhancing targeted gene editing and methods of use thereof” (Yale University, priority 2016, dated 2021)
# Where two headings read alike, the source gives them in different places. For at least one compound, name, drawing or mass did not settle the structure.
# System: homology-dependent repair (HDR)
# Assay: Luciferase reporter gene assay for homology-dependent repair (HDR) in CD117+ cells
# Type: cell-based, mouse
# Protocol: An inactivating I-Sce1 site was cloned 56 amino acids into the firefly luciferase open reading frame under the control of a CMV promoter. The reporter construct also contains a promoterless luciferase gene used as a template for homologous recombination. A double-strand break in the luciferase reporter is created by in vitro digestion with the I-Sce I restriction enzyme (NEB #R0694L). Plasmid DNA was digested with I-Sce 1 for 1 hour at 37° C. at a ratio of 10 units enzyme to 1 μg DNA and then the enzyme was inactivated at 65° C. for 20 minutes. The linearization of the plasmid was confirmed for each digestion via gel electrophoresis and the linear plasmid was purified using the Qiagen Qiaquick spin columns. After separation CD117+ and CD117-cells from bone marrow of β-globin/GFP transgenic mice, cells were transfected using the Lonza 2b Nucleofector Device. […] After 24 hours incubation post transfection, luciferase activity was measured using the Promega Dual Luciferase Assay Kit. […] Reporter reactivation was calculated as a ratio of normalized firefly luciferase activity in the cells transfected with the reporter plasmid to the positive control.
# To test whether the above increases in DNA repair gene expression could be correlated with functional differences in DNA repair, a luciferase-based assay was used to quantify repair of DNA double-strand breaks (DSBs) by HDR. […]
smiles,measurement,setting,value
Cc1nc(Nc2ncc(C(=O)Nc3c(C)cccc3Cl)s2)cc(N2CCN(CCO)CC2)n1 [Dasatinib],HDR repair activity (luciferase reactivation) in CD117+ cells,,reductions in HDR activity
same,HDR repair activity (luciferase reactivation) in CD117+ cells,listed as dasatnib,diminished
